Measurements published in publication PMC10164911.
Results are given in words; binding and its absence hold for the method and conditions named. In cells and extracts the contact can be indirect. Some entries that bind do so weakly or less than the wild type. Sequences can lack the tags named with a protein.

The chains behind the UniProt entries cited, without tags or fusion partners.
UniProt Q99250: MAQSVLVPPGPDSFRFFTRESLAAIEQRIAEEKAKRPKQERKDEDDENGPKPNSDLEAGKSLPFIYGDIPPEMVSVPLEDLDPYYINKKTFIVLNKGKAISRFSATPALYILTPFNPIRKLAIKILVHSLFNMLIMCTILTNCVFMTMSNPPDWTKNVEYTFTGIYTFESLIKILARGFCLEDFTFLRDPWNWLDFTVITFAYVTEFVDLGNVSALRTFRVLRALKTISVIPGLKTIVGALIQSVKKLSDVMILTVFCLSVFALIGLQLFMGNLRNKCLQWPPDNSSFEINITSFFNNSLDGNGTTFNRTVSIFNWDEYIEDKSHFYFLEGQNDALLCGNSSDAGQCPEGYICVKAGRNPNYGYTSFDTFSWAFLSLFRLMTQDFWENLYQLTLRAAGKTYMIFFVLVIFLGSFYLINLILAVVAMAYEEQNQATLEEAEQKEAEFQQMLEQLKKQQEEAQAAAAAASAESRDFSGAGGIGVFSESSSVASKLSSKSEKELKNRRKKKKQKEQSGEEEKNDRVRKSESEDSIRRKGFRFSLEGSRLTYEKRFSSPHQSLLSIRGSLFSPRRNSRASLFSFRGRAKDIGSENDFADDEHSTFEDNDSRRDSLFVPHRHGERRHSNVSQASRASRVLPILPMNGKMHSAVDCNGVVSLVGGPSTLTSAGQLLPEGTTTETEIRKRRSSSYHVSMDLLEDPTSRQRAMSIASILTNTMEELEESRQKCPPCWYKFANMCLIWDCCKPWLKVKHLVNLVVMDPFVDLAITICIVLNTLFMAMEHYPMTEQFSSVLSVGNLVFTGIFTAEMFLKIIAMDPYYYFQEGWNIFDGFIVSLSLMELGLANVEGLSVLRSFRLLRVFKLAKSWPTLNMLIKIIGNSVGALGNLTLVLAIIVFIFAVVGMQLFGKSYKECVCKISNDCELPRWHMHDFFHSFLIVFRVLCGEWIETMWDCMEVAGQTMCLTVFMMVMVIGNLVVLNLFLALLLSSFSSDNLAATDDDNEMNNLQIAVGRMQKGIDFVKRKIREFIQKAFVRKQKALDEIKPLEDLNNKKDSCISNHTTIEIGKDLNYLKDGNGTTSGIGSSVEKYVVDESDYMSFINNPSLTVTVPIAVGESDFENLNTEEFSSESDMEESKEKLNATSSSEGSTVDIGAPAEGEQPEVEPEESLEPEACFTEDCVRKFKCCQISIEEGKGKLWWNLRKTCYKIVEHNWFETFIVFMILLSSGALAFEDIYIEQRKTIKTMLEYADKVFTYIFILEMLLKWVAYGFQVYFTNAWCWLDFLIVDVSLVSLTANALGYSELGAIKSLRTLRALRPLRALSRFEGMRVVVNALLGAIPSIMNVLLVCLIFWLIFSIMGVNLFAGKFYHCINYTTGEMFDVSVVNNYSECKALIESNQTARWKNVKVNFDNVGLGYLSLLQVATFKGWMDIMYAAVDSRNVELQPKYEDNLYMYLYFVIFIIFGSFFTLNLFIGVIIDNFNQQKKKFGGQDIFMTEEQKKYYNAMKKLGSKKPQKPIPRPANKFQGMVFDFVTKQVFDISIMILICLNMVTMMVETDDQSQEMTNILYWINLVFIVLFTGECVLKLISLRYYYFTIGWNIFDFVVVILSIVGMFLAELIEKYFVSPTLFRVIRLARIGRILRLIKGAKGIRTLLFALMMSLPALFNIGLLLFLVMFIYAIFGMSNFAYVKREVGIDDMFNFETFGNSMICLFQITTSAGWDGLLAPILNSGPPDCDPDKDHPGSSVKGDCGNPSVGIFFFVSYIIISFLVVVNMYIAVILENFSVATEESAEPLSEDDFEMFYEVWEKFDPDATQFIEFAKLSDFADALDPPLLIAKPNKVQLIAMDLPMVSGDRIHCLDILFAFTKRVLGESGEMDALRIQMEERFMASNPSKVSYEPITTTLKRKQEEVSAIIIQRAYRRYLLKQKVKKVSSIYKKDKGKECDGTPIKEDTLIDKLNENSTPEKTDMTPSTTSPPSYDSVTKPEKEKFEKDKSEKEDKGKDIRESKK

Biological target: T1, PRRT2-HA (full-length proline-rich transmembrane protein 2 with 3XHA tag) (human) (UniProt Q7Z6L0)
T1 sequence: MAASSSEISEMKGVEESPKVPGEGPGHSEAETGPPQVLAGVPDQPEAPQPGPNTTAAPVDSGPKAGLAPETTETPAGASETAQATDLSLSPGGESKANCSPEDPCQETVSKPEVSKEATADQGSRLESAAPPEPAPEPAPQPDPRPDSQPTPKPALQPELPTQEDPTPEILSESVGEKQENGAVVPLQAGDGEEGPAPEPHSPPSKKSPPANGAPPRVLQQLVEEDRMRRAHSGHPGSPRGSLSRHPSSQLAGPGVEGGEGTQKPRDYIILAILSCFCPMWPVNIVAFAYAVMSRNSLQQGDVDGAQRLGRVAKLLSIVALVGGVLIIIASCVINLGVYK
Experiment: pull-down; HA-tagged PRRT2 variants from naive Hek293 lysate held on anti-HA-agarose beads, washed, then incubated with extracts of Hek293 clones expressing Nav1.2 or Nav1.1 for 2 h at 4 °C; lysis buffer 150 mM NaCl, 50 mM Tris, 1 mM EDTA, 1% Triton X-100; Western blot with pan-Nav and HA …; only the target purified

binding: binds
Substance: Nav1.2 α-subunit (voltage-dependent Na+ channel) (from UniProt Q99250 1-2005)
